From PubChem BioAssay AID2551 (National Center for Advancing Translational Sciences (NCATS), 2010)
The whole screen tested about 310,000 compounds, of which about 17,000 (5.5%) were called active. This list was built around the results that the source calls inconclusive (neither active nor inactive); the mix of calls is not that of the screen. Calls come from the whole dose curve; as a rule, active = well fitted inhibition curve with a large enough effect; inconclusive = small, poorly fitted or top-dose-only effect, or effect the other way; inactive = no such curve, though single readings can be large or run the other way. Potencies of inconclusive entries are doubtful fits and often do not repeat.

Amino acid sequences for entries named in this document (tags omitted). A change or cut given only in a name is not applied to a line headed by its entry.
UniProt P51450: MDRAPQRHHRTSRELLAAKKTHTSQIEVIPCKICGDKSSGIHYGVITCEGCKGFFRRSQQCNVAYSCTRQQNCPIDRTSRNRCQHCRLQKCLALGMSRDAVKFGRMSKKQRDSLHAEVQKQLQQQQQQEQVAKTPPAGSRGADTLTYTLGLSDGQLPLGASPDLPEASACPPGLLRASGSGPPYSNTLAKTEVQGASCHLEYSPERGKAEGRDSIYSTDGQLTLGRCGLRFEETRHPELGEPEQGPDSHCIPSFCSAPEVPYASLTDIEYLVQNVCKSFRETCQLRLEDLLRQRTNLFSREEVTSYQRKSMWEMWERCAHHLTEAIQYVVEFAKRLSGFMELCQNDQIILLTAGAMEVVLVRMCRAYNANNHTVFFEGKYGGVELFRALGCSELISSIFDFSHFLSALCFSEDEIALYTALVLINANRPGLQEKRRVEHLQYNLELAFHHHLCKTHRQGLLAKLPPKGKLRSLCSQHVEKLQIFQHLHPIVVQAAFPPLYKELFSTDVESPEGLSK

Target: Nuclear receptor ROR-gamma (Mus musculus) (UniProt P51450)
Assay: qHTS for inhibitors of ROR gamma transcriptional activity; note: nearly all actives have a fitted effect of over 60% in size
Conditions: Drosophila S2 Gal4-RORgamma UAS-luciferase reporter, 20 h; activity change, negative = inhibition: at 53.6 µM (top of the series)
How it was run: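 In this cell-based reporter format, copper sulfate (700 uM final) drives Gal4–ROR gamma fusion expression from a metallothionein promoter in Drosophila Schneider cells; compounds preincubated 1 hr, reporter read after 20 hr at ambient temperature.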
% is set by controls: 0 for no effect and ±100 for the full control effect; potency is the fitted concentration of half-maximal effect.

SMILES	Potency	activity change, negative = inhibition
COc1ccc(OC)c(Nc2nc(N)c([N+](=O)[O-])c(N3CCOCC3)n2)c1	inactive	–
O=C(CN1CCN(Cc2ccc(Cl)cc2)CC1)N/N=C/c1cccs1	inconclusive: 28.2 µM [inhibitor, single point]	–
COc1ccc(CNC(=O)c2c(C)oc3c2C(=O)c2ccccc2C3=O)cc1	inactive	–
O=C(O)c1ccc(N2CCCCCC2)c(N2C(=O)c3ccccc3C2=O)c1	inactive	–
COC(=O)Cn1ncc2c(C)n(Cc3ccccc3)c(C)c2c1=O	inconclusive: 25.1 µM [inhibitor, single point]	–
CCOc1ccccc1Nc1nnc(SCc2nnc(-c3cc(OC)c(OC)c(OC)c3)o2)s1	inactive	–
O=C(CCCN1C(=O)/C(=C/c2ccccc2Cl)SC1=S)NNC(=O)c1ccccc1Cl	active: 1 µM	–
Cc1cc(OC(=O)c2cccc(Br)c2)c([N+](=O)[O-])c(=O)[nH]1	inactive	–
O=C1c2cccnc2C(Nc2ccccc2Br)N1Cc1ccco1 (stereo not drawn)	inactive	–
O=C1CC(Sc2cccs2)C(=O)N1c1ccccc1 (stereo not drawn)	active: 4.47 µM	–
COc1ccc(-c2nc3cc(NC(=O)Cc4ccc(OC)c(OC)c4)ccc3o2)cc1	inconclusive: 10 µM [activator, partial curve]	–
COc1ccc(N2CCN(Cc3cc(=O)oc4cc5c(cc34)CCCC5)CC2)cc1	inconclusive: 0.794 µM [inhibitor, single point]	–
Cc1c(C(=O)NN)nn(-c2ccc(Cl)cc2)c(=O)c1C#N	inconclusive: 12.6 µM [inhibitor, partial curve, poor fit]	–
CC1CCN(S(=O)(=O)c2ccc(C(=O)Nc3sccc3C(N)=O)cc2)CC1	inactive	–
O=C1CCCN1CCCNS(=O)(=O)c1ccc(Cl)c(C(=O)N2CCOCC2)c1	inactive	–
COc1ccc(/C=C/C(=O)c2ccccc2)cc1Cn1nnc2ccccc21	inconclusive: 22.4 µM [inhibitor, single point]	–
CC(=O)c1c(C)nc(-c2ccc(Cl)cc2)nc1N=CN(C)C	inconclusive: 0.398 µM [inhibitor, single point]	–
CN(c1ccccc1)S(=O)(=O)c1cccc(NC(=O)CN2CCCc3ccccc32)c1	inconclusive: 17.8 µM [activator, partial curve, poor fit]	–
CNC(=S)Nc1sc2c(c1C(=O)OC)CCC2	active: 1.26 µM	–
CC(Oc1ccc(Cl)cc1)C(=O)NNC(=S)NC(=O)c1ccco1 (stereo not drawn)	active: 12.6 µM	–
COc1ccc(S(=O)(=O)NCCc2c[nH]c3ccc(C)cc23)cc1	inconclusive: 35.5 µM [inhibitor, single point]	–
COc1cc(NC(=O)COC(=O)c2cc(S(=O)(=O)N3CCCCC3)ccc2Cl)c(C)cc1[N+](=O)[O-]	inconclusive: 7.08 µM [activator, partial curve]	–
Cc1c(CNCCc2ccc(Cl)cc2)c(C(=O)O)c(C)n1Cc1ccccc1	inactive	–
CCOC(=O)/C(N=Nc1sc(C(=O)OC)c(C)c1C(=O)OCC)=C(\O)CCl	inconclusive: 10 µM [activator, partial curve]	–
O=C(c1ccc(F)cc1)C1CCN(S(=O)(=O)c2ccccc2)CC1	inactive	–

SMILES	Potency	activity change, negative = inhibition
Cc1cccc(-n2nc(C)c3c(C(=O)O)cc(-c4cccs4)nc32)c1	inactive	–
COc1ccc(Nc2ccc(N3C(=O)CCCC3=O)cc2[N+](=O)[O-])cc1OC	inactive	–
CCOC(=O)c1c(C)n(CC(O)c2ccccc2)c2ccc(O)cc12 (stereo not drawn)	inconclusive: 15.8 µM [inhibitor, single point]	–
CCOC(=O)C1(CCOc2ccccc2)CCN(Cc2ccc(F)c(OC)c2)CC1	inconclusive: 11.2 µM [activator, partial curve]	–
CCOC(=O)c1c(C)[nH]c(C(=O)OCc2ccccc2)c1C	inconclusive: 35.5 µM [inhibitor, single point]	–
Cc1sc(NC(=O)c2cccs2)c(C(N)=O)c1C	inconclusive: 2.82 µM [activator, partial curve, poor fit]	–
COc1ccc2c(=O)c(-c3ccccc3)c(C)oc2c1	inconclusive: 10 µM [activator, partial curve]	–
Cc1ncc(CC(=O)n2cc(C(=O)c3cc(F)ccc3O)cn2)s1	inconclusive: 8.91 µM [inhibitor, partial curve]	–
CC(C)(CNC(=O)c1ccc(Br)o1)N1CCOCC1	inconclusive: 15.8 µM [inhibitor, partial curve]	–
O=c1[nH]c2ccc(NCc3ccccc3OCc3ccc(Cl)cc3)cc2[nH]1	inconclusive: 11.2 µM [activator, partial curve]	–
Cc1ccsc1CNc1ncnc2ccc(-c3c(C)noc3C)cc12	inconclusive: 1.12 µM [inhibitor, partial curve, poor fit]	–
COc1cccc2cc(C(=O)NCc3ccc(Cl)cc3)c(=O)oc12	inconclusive: 0.1 µM [activator, full curve, poor fit]	–
CN(NS(=O)(=O)c1ccc(F)cc1)c1ncc(C(F)(F)F)cc1Cl	active: 3.16 µM	–
O=C(N/N=C/c1cccc(OC(=O)c2ccc3c(c2)OCO3)c1)c1cncc(Br)c1	inconclusive: 35.5 µM [inhibitor, single point]	–
CC1(C)Cc2c(c(-c3ccccc3Cl)[nH]c(=O)c2C#N)CO1	inconclusive: 8.91 µM [activator, partial curve]	–
NS(=O)(=O)c1ccc(NNC(=O)c2ccccc2)cc1	inactive	–
COc1ccc(N2C(=S)NC(C)(C)CC2(C)c2ccc(OC(C)=O)cc2OC(C)=O)cc1 (stereo not drawn)	active: 10 µM	–
Cc1nn(-c2ccccc2)c(C)c1/C=N/NC(=O)c1ccccc1O	inconclusive: 22.4 µM [inhibitor, single point]	–
Clc1ccc(-n2nnc(-c3cccnc3Cl)n2)cc1Cl	inactive	–
CCOc1ccccc1NC(=O)Nc1cccc(C(C)=O)c1	inconclusive: 11.2 µM [activator, partial curve, poor fit]	–
CCc1ccc(NC(=O)C2CCN(C(=O)N3CCOc4ccccc43)CC2)cc1	inactive	–
O=C(CSc1nc2ccccc2[nH]1)Nc1ccc(N2CCOCC2)cc1	inconclusive: 10 µM [activator, partial curve]	–
CCCn1c(C(O)c2cc(OC)c(OC)c(OC)c2)nc2ccccc21 (stereo not drawn)	inconclusive: 35.5 µM [activator, single point]	–
CC(C)(C)c1nnc(N/N=C/c2ccc(Br)cc2)n(N)c1=O	active: 2.82 µM	–
Fc1cccc(CN2CCN(C(=S)NCCc3ccccc3)CC2)c1	inactive	–

SMILES	Potency	activity change, negative = inhibition
Cc1cccc(-c2ncc(CN3CCN(C4CCCC4)C(CCO)C3)cn2)c1 (stereo not drawn)	inactive	–
CC(=O)Oc1ccc(/C=C(\NC(=O)c2ccco2)C(=O)NCc2ccco2)cc1	inactive	–
Cc1ccc(NS(=O)(=O)c2ccc3c(c2)NC(=O)CCS3)cc1C	inconclusive: 17.8 µM [activator, single point]	–
N#C/C(=C\c1ccccn1)c1nc2ccccc2s1	inconclusive: 25.1 µM [inhibitor, single point]	–
Clc1ccc(NCc2cccnc2)cc1	inactive	–
COc1ccc2nc(N3C(=O)CNC3=S)sc2c1	active: 0.501 µM	–
Cc1ccsc1/C=N/n1c(COc2ccccc2)n[nH]c1=S	active: 6.31 µM	–
O=C(O)CSCC(=O)Nc1ccc(-c2nc3ccccc3s2)cc1	inconclusive: 25.1 µM [inhibitor, single point]	–
CC(C(=O)Nc1ccc(S(N)(=O)=O)cc1)N1CCc2ccccc21 (stereo not drawn)	inconclusive: 11.2 µM [activator, partial curve]	–
N/C(Cc1nc2ccccc2s1)=N\O	inconclusive: 0.1 µM [activator, full curve, poor fit]	–
Clc1ccc(-c2nc3ccccn3c2CN2CCSCC2)cc1	active: 12.6 µM	–
Cc1ccc(NC(=O)/C(C#N)=C/c2cc(C)n(-c3ccc(N4CCOCC4)c([N+](=O)[O-])c3)c2C)c(C)c1	inconclusive: 4.47 µM [activator, full curve]	–
COC(CNC(=O)c1ccc2nc(-c3cccs3)c(-c3cccs3)nc2c1)OC	–	inactive: 22% [at 10 µM]
Cc1cccc2cc(-c3ccccc3)c(-c3ccccc3)c[n+]12	inconclusive: 17.8 µM [activator, single point]	–
CCOC(=O)c1c(C)nc2sc(C(=O)Nc3ccccc3)c(N)c2c1-c1ccc(OC)cc1	inactive	–
Oc1c(CN2CCOCC2)ccc2ccccc12	inactive	–
COc1cccc(N=c2oc3ccccc3cc2-c2nc3ccccc3[nH]2)c1	active: 7.94 µM	–
Cc1c(Cl)cc(-n2cnnn2)cc1[N+](=O)[O-]	inconclusive: 11.2 µM [inhibitor, single point]	–
Cc1cc(-n2ccnc2)n2c(nc3ccccc32)c1C#N	inconclusive: 0.0501 µM [inhibitor, full curve, poor fit]	–
Cc1cc(NC(=O)CSc2nnc(-c3ccncc3)n2C)n(-c2ccccc2)n1	inactive	–
CCc1ccc(NC(=O)CN2C(=O)COc3ccc(S(=O)(=O)N4CCCC4)cc32)cc1	inactive	–
COc1ccc(-c2oc3cc(O[C@@H]4OC(CO)C(O)C(O)C4O)c(OC)c(O)c3c(=O)c2OC)cc1O (stereo partly drawn)	inconclusive: 31.6 µM [activator, single point]	–
